# In the supplement of paper PMC8728848:
# This is one part of the list.
# B1: SBD (Rhizopus oryzae), P07683 (protein)
# chain: ASIPSSASVQLDSYNYDGSTFSGKIYVKNIAYSKKVTVVYADGSDNWNNNGNIIAASFSGPISGSNYEYWTFSASVKGIKEFYIKYEVSGKTYYDNNNSANYQVS
# Legend:
# Test in all cases: glycan array binding signal (z-score within array); higher = stronger binding
# Details in all cases: glycan notation: IUPAC condensed, linker removed
# [1] = target: Neu5Ac(a2-6)Gal(b1-4)GlcNAc(b1-3)GalNAc
# Method in brief: (§1)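 From the Consortium for Functional Glycomics database, 3228 arrays were curated, keeping only those whose protein sequence was available. Binding is given as a within-array Z-score averaged across arrays sharing a protein sequence and across linkers. Negative Z-scores can be read as non-binding.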
# [2] = target: Neu5Ac(a2-6)Gal(b1-4)GlcNAc6S
# Method in brief: as §1
# Neu5Ac(a2-6)GalNAc = target: Neu5Ac(a2-6)GalNAc
# Method in brief: as §1
# [3] = target: Neu5Ac(a2-6)GalNAc(b1-4)GlcNAc
# Method in brief: as §1
# [4] = target: Neu5Ac(a2-6)GlcNAc(b1-4)GlcNAc
# Method in brief: as §1
# [5] = target: Neu5Ac(a2-6)GlcNAc(b1-4)GlcNAc(b1-4)GlcNAc
# Method in brief: as §1
# Neu5Ac(a2-8)Neu5Ac = target: Neu5Ac(a2-8)Neu5Ac
# Method in brief: as §1
# [6] = target: Neu5Ac(a2-8)Neu5Ac(a2-3)Gal(b1-4)Glc
# Method in brief: as §1
# [7] = target: Neu5Ac(a2-8)Neu5Ac(a2-3)[GalNAc(b1-4)]Gal(b1-4)Glc
# Method in brief: as §1
# [8] = target: Neu5Ac(a2-8)Neu5Ac(a2-8)Neu5Ac
# Method in brief: as §1
# [9] = target: Neu5Ac(a2-8)Neu5Ac(a2-8)Neu5Ac(a2-3)Gal(b1-4)Glc
# Method in brief: as §1
# [10] = target: Neu5Ac(a2-8)Neu5Ac(a2-8)Neu5Ac(a2-3)[GalNAc(b1-4)]Gal(b1-4)Glc
# Method in brief: as §1
# [11] = target: Neu5Ac(a2-8)Neu5Ac(a2-8)Neu5Ac(a2-8)Neu5Ac(a2-3)[GalNAc(b1-4)]Gal(b1-4)Glc
# Method in brief: as §1
# [12] = target: Neu5Ac(b2-6)Gal(b1-4)GlcNAc
# Method in brief: as §1
# Neu5Ac(b2-6)GalNAc = target: Neu5Ac(b2-6)GalNAc
# Method in brief: as §1
# [13] = target: Neu5Ac9Ac(a2-3)Gal(b1-3)GlcNAc
# Method in brief: as §1
# [14] = target: Neu5Ac9Ac(a2-3)Gal(b1-4)GlcNAc
# Method in brief: as §1
# [15] = target: Neu5Ac9Ac(a2-6)Gal(b1-4)GlcNAc
# Method in brief: as §1
# [16] = target: Neu5Gc(a2-3)Gal(b1-3)GlcNAc
# Method in brief: as §1
# [17] = target: Neu5Gc(a2-3)Gal(b1-3)[Fuc(a1-4)]GlcNAc
# Method in brief: as §1
# Neu5Gc(a2-3)Gal(b1-4)Glc = target: Neu5Gc(a2-3)Gal(b1-4)Glc
# Method in brief: as §1
# [18] = target: Neu5Gc(a2-3)Gal(b1-4)GlcNAc
# Method in brief: as §1
# [19] = target: Neu5Gc(a2-3)Gal(b1-4)[Fuc(a1-3)]GlcNAc
# Method in brief: as §1
# [20] = target: Neu5Gc(a2-6)Gal(b1-4)GlcNAc
# Method in brief: as §1
# Neu5Gc(a2-6)GalNAc = target: Neu5Gc(a2-6)GalNAc
# Method in brief: as §1
# [21] = target: Neu5Gc(b2-6)Gal(b1-4)GlcNAc
# Method in brief: as §1
binder,measurement,setting,value
B1,glycan array binding signal (z-score),[1],0.25
same,glycan array binding signal (z-score),[2],-0.322
same,glycan array binding signal (z-score),Neu5Ac(a2-6)GalNAc,-0.318
same,glycan array binding signal (z-score),[3],-0.074
same,glycan array binding signal (z-score),[4],0.158
same,glycan array binding signal (z-score),[5],0.217
same,glycan array binding signal (z-score),Neu5Ac(a2-8)Neu5Ac,-0.114
same,glycan array binding signal (z-score),[6],-0.375
same,glycan array binding signal (z-score),[7],-0.141
same,glycan array binding signal (z-score),[8],-0.257
same,glycan array binding signal (z-score),[9],-0.33
same,glycan array binding signal (z-score),[10],0.32
same,glycan array binding signal (z-score),[11],-0.102
same,glycan array binding signal (z-score),[12],-0.297
same,glycan array binding signal (z-score),Neu5Ac(b2-6)GalNAc,-0.157
same,glycan array binding signal (z-score),[13],-0.209
same,glycan array binding signal (z-score),[14],0.186
same,glycan array binding signal (z-score),[15],-0.195
same,glycan array binding signal (z-score),[16],-0.163
same,glycan array binding signal (z-score),[17],-0.421
same,glycan array binding signal (z-score),Neu5Gc(a2-3)Gal(b1-4)Glc,0.014
same,glycan array binding signal (z-score),[18],0.132
same,glycan array binding signal (z-score),[19],-0.487
same,glycan array binding signal (z-score),[20],-0.239
same,glycan array binding signal (z-score),Neu5Gc(a2-6)GalNAc,0.149
same,glycan array binding signal (z-score),[21],-0.221

# Two entries from above, as tab-separated lines:
binder	measurement	setting	value
B1	glycan array binding signal (z-score)	Neu5Ac(a2-6)GalNAc	-0.318
same	glycan array binding signal (z-score)	[3]	-0.074
